A short description of data set [1]: in vivo. Particulars: rabbit, plasma, 15 mg/kg.
The conditions of data set [2]: oral administration; cited from earlier work.

In general, AUC refers to the area under the concentration-time curve, a measure of exposure. Higher therefore signals more exposure. What is called Cmax is the peak of the concentration-time curve. Turning to `COc1ccc2cc([C@H](C)C(=O)O)ccc2c1` [Naproxen, d-2(6-methoxy-2-naphthyl)propionic acid], in data set [1] (im), the AUC was determined as 287 µg·h/mL, the Cmax came out at 45000 ± 9000 ng/mL, the concentration at 0.5 h turned out to be 23500 ± 5100 ng/mL and the concentration at 12 h came to 5200 ± 3400 ng/mL. Also, the AUC in data set [1] (iv) came out at 212 µg·h/mL. Besides, the gastrointestinal irritation entry in data set [2] is recorded as “frequently results in gastrointestinal irritation”.

Values taken from patent publication US6153225A (Elan Pharma International Limited, priority 1998, dated 2000).
